{"sequences": {"note": "Protein sequences, listed by entry. Tags and fused reporters are not part of them. Residues count along the entry.", "UniProt P46379, residues 17-101": "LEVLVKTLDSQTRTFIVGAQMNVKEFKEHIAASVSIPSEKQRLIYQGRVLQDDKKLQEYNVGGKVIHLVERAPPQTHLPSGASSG"}, "source": "paper PMC4872217", "about": "“Structural and functional insights into the E3 ligase, RNF126” (Scientific Reports, 2016)", "binders": {"B1": {"name": "RNF126_NZF H14A mutant (domain or fragment, human, UniProt Q9BV68 1-40, looked up)", "chain": "MAEASPHPGRYFCACCSVEIVPRLPDYICPRCESGFIEEL", "notes": "RNF126, human, residues 1-40, with H14A; Made by PCR mutagenesis on pET28-GFP-RNF126 (1-40); in the native PAGE the mutants were GFP tagged; also called His14/Ala; source: E. coli BL21 (DE3), purified"}}, "molecular_target": "BAG6_UBL (UBL domain of BAG6, residues 17-101) (UniProt P46379)", "experiment": "ITC; 500 μM RNF126_NZF (wild-type or mutant) injected into 50 μM BAG6_UBL in the cell; 25 °C; 10 mM potassium phosphate pH 6.0, 100 mM NaCl, 250 μM TCEP; both purified", "note": "These are yes or no findings as the source states them, for the method shown."}
{"binder": "B1", "values": [{"measurement": "binding", "value": "no binding (tested: >50 μM)"}]}
